{"source": "patent US7678808B2", "about": "“5 HT receptor mediated neurogenesis” (BrainCells, Inc., priority 2006, dated 2010)", "tested_on": "human neural stem cells (hNSCs)", "test": "Neuronal differentiation of human neural stem cells (TUJ-1 staining)", "type": "cell-based", "details": "Neural stem cell, agent alone, hNSC, data as % of neuronal positive control, basal media subtracted", "from_the_text": "Mitogen-free test media with a positive control was used for neuronal differentiation, and basal media without growth factors served as a negative control.\nMitogen-free test media with a positive control for neuronal differentiation was used, and basal media without growth factors served as a negative control.\nHuman neural stem cells (hNSCs) were isolated and grown in monolayer culture, plated, treated with varying concentrations of buspirone in the presence or absence of the melatonin agonist melatonin, and stained with TUJ-1 antibody for the detection of neuronal differentiation or GFAP antibody for the detection of astrocyte differentiation, as described above. Mitogen-free test media with a positive control for neuronal differentiation was used along with basal media without growth factors as a negative control.\nHuman neural stem cells (hNSCs) were isolated and grown in monolayer culture, plated, treated with varying concentrations of a 5-HT3 antagonist and stained with TUJ-1 antibody, as described above. […]\nThe presence of synergy was determined by use of a combination index (CI). […] The CI is a quantitative measure of the nature of drug interactions, comparing the EC50's of two compounds, when each is assayed alone, to the EC50 of each compound when assayed in combination. […]", "data": [{"smiles": "CN1CCN(C2=Nc3cc(Cl)ccc3Nc3ccccc32)CC1", "note": "[clozapine]", "values": [{"measurement": "EC50", "value": 3.6, "unit": "µM"}]}]}
